For at least one compound, name, drawing or mass did not settle the structure.
Test system: D. hansenii
Assay: Growth of D. hansenii in the absence and presence of PI-3 kinase inhibitors
Format: cell-based, Debaryomyces hansenii
Conditions: wortmannin 100 nM, LY 294002 15 μM; medium A with glucose, low nitrogen

Structure (SMILES)	growth of D. hansenii
O=c1cc(N2CCOCC2)oc2c(-c3ccccc3)cccc12 [LY 294002]	failed to affect the growth
COC[C@H]1OC(=O)c2coc3c2[C@@]1(C)C1=C(C3=O)[C@@H]2CCC(=O)[C@@]2(C)C[C@H]1OC(C)=O [wortmannin]	failed to affect the growth
